Holding throughout (assay): tandem affinity co-purification + SEC
Experiment [1] deals with T1, Smc4 subunit of condensin, Smc4-StrepII3 (wild-type) (S. cerevisiae) (UniProt Q12267).
T1 sequence: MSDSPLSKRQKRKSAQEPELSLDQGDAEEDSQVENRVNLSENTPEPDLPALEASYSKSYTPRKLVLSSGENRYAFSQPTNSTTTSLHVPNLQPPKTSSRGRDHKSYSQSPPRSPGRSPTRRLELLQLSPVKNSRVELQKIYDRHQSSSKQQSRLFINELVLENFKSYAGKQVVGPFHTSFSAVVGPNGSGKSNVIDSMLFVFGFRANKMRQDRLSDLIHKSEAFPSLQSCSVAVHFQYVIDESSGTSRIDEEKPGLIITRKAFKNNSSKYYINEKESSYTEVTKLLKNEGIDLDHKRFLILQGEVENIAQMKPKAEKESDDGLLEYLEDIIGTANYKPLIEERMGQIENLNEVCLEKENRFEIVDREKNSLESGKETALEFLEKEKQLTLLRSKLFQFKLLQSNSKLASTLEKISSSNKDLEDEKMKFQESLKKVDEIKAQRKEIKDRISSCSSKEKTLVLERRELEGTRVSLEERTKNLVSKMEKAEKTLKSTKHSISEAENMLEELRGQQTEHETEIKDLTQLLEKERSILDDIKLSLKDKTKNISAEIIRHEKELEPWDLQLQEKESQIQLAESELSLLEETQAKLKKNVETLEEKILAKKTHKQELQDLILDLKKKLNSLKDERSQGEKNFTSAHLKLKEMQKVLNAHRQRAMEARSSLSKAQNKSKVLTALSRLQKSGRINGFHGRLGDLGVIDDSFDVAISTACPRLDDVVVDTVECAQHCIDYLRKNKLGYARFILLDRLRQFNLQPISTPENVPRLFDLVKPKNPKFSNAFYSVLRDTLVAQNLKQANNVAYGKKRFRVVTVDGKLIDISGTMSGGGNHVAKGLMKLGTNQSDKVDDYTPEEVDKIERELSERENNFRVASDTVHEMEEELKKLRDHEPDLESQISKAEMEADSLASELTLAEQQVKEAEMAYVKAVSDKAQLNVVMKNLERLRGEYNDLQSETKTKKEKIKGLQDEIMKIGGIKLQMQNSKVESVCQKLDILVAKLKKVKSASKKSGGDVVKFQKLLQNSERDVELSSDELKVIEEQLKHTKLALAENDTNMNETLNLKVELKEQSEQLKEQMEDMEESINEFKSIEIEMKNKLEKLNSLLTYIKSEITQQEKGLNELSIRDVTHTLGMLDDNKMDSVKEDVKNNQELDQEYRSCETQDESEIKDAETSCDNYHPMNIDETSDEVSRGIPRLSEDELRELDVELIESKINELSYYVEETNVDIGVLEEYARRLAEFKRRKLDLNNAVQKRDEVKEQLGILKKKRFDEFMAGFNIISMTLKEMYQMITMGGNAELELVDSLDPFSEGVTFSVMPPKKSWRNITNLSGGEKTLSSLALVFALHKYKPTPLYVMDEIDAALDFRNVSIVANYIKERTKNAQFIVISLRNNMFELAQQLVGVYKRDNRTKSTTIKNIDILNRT

Experiment [2] deals with T2, Brn1 kleisin subunit of condensin, Brn1-HA3-His12 (S. cerevisiae) (UniProt P38170).
T2 sequence: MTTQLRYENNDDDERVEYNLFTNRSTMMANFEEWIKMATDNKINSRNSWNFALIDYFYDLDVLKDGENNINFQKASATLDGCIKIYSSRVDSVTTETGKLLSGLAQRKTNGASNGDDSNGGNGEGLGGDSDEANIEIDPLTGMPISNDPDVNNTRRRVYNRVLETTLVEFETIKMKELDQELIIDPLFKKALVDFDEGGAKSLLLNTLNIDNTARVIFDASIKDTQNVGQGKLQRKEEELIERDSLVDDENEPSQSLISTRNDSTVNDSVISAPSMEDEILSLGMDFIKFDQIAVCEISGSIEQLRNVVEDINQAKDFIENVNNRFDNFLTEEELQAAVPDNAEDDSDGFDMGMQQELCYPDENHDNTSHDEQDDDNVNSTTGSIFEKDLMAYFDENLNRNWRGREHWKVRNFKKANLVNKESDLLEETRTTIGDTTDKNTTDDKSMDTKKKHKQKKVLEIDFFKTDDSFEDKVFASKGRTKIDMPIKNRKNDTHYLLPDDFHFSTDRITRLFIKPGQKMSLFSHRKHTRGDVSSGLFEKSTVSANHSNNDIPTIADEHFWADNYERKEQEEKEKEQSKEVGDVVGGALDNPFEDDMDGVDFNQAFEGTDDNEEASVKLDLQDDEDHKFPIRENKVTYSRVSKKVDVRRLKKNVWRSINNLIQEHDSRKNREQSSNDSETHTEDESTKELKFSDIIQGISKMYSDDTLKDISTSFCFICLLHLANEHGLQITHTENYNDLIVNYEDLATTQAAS

For experiment [3], the target named is T3, Smc4 subunit of condensin, Smc4-StrepII3 (wild-type) (S. cerevisiae), Q12267.
T3 chain: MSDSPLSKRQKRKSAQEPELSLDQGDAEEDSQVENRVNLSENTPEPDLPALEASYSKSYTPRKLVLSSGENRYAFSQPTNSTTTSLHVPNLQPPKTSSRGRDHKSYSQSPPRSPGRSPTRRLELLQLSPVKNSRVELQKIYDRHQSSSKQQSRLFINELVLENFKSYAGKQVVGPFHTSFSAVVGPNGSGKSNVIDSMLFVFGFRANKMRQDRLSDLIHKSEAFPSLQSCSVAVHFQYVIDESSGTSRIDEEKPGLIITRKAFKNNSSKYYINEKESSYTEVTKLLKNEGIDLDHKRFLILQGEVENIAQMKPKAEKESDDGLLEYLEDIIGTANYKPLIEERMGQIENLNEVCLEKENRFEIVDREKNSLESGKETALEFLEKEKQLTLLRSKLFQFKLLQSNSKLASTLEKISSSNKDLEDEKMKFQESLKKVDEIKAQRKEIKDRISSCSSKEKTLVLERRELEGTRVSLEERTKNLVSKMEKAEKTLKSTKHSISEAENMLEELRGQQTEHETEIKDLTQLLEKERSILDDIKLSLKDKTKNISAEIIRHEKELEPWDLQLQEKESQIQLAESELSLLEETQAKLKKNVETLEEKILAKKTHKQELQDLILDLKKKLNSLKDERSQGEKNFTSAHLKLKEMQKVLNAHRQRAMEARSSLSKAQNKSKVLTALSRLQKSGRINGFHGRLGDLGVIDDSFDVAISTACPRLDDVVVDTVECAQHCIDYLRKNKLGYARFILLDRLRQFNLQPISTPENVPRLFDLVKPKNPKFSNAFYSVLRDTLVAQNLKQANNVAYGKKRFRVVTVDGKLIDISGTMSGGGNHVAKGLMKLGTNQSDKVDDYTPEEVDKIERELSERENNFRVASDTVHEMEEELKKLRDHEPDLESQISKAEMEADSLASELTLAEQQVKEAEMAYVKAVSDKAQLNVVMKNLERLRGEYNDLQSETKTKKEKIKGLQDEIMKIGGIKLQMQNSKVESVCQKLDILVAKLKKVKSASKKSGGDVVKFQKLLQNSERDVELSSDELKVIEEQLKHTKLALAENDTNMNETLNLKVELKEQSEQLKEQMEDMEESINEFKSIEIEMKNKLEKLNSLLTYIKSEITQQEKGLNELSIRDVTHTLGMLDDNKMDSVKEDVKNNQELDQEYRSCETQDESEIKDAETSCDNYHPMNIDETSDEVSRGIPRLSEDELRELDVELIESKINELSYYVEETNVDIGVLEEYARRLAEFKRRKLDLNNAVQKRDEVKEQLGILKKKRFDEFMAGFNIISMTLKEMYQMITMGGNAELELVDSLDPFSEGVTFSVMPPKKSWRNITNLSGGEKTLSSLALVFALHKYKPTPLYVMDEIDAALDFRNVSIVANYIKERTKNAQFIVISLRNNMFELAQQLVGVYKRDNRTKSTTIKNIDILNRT
The note with it: remark: other sources report otherwise.

This is an account of results in publication doi:10.1101/137711.

No constants are given. Whether binding was seen depends on the method and setting. Some binding calls cover weakened binding; strength is not graded here. For part of these data: Where a sequence is shown, tags or fusion partners need not be part of it.

B1: Smc2 subunit of condensin (wild-type) (protein, UniProt P38989 1-1170)
chain: MKVEELIIDGFKSYATRTVITDWDPQFNAITGLNGSGKSNILDAICFVLGIASMSTVRASSLQDLIYKRGQAGVTKASVTIVFDNTDKSNSPIGFTNSPQISVTRQVVLGGTSKYLINGHRAPQQSVLQLFQSVQLNINNPNFLIMQGKITKVLNMKPSEILSLIEEAAGTKMFEDRREKAERTMSKKETKLQENRTLLTEEIEPKLEKLRNEKRMFLEFQSTQTDLEKTERIVVSYEYYNIKHKHTSIRETLENGETRMKMLNEFVKKTSEEIDSLNEDVEEIKLQKEKELHKEGTISKLENKENGLLNEISRLKTSLSIKVENLNDTTEKSKALESEIASSSAKLIEKKSAYANTEKDYKMVQEQLSKQRDLYKRKEELVSTLTTGISSTGAADGGYNAQLAKAKTELNEVSLAIKKSSMKMELLKKELLTIEPKLKEATKDNELNVKHVKQCQETCDKLRARLVEYGFDPSRIKDLKQREDKLKSHYYQTCKNSEYLKRRVTNLEFNYTKPYPNFEASFVHGVVGQLFQIDNDNIRYATALQTCAGGRLFNVVVQDSQTATQLLERGRLRKRVTIIPLDKIYTRPISSQVLDLAKKIAPGKVELAINLIRFDESITKAMEFIFGNSLICEDPETAKKITFHPKIRARSITLQGDVYDPEGTLSGGSRNTSESLLVDIQKYNQIQKQIETIQADLNHVTEELQTQYATSQKTKTIQSDLNLSLHKLDLAKRNLDANPSSQIIARNEEILRDIGECENEIKTKQMSLKKCQEEVSTIEKDMKEYDSDKGSKLNELKKELKLLAKELEEQESESERKYDLFQNLELETEQLSSELDSNKTLLHNHLKSIESLKLENSDLEGKIRGVEDDLVTVQTELNEEKKRLMDIDDELNELETLIKKKQDEKKSSELELQKLVHDLNKYKSNTNNMEKIIEDLRQKHEFLEDFDLVRNIVKQNEGIDLDTYRERSKQLNEKFQELRKKVNPNIMNMIENVEKKEAALKTMIKTIEKDKMKIQETISKLNEYKRETLVKTWEKVTLDFGNIFADLLPNSFAKLVPCEGKDVTQGLEVKVKLGNIWKESLIELSGGQRSLIALSLIMALLQFRPAPMYILDEVDAALDLSHTQNIGHLIKTRFKGSQFIVVSLKEGMFANANRVFRTRFQDGTSVVSIM
With B1, the binding result in experiment [1] and in experiment [2] was “binds” throughout.

B2: Ycg1 HEAT-repeat subunit of condensin, Q06680 1-1035 (protein)
chain: MQDPDGIDINTKIFNSVAEVFQKAQGSYAGHRKHIAVLKKIQSKAVEQGYEDAFNFWFDKLVTKILPLKKNEIIGDRIVKLVAAFIASLERELILAKKQNYKLTNDEEGIFSRFVDQFIRHVLRGVESPDKNVRFRVLQLLAVIMDNIGEIDESLFNLLILSLNKRIYDREPTVRIQAVFCLTKFQDEEQTEHLTELSDNEENFEATRTLVASIQNDPSAEVRRAAMLNLINDNNTRPYILERARDVNIVNRRLVYSRILKSMGRKCFDDIEPHIFDQLIEWGLEDRELSVRNACKRLIAHDWLNALDGDLIELLEKLDVSRSSVCVKAIEALFQSRPDILSKIKFPESIWKDFTVEIAFLFRAIYLYCLDNNITEMLEENFPEASKLSEHLNHYILLRYHHNDISNDSQSHFDYNTLEFIIEQLSIAAERYDYSDEVGRRSMLTVVRNMLALTTLSEPLIKIGIRVMKSLSINEKDFVTMAIEIINDIRDDDIEKQEQEEKIKSKKINRRNETSVDEEDENGTHNDEVNEDEEDDNISSFHSAVENLVQGNGNVSESDIINNLPPEKEASSATIVLCLTRSSYMLELVNTPLTENILIASLMDTLITPAVRNTAPNIRELGVKNLGLCCLLDVKLAIDNMYILGMCVSKGNASLKYIALQVIVDIFSVHGNTVVDGEGKVDSISLHKIFYKVLKNNGLPECQVIAAEGLCKLFLADVFTDDDLFETLVLSYFSPINSSNEALVQAFAFCIPVYCFSHPAHQQRMSRTAADILLRLCVLWDDLQSSVIPEVDREAMLKPNIIFQQLLFWTDPRNLVNQTGSTKKDTVQLTFLIDVLKIYAQIEKKEIKKMIITNINAIFLSSEQDYSTLKELLEYSDDIAENDNLDNVSKNALDKLRNNLNSLIEEINERSETQTKDENNTANDQYSSILGNSFNKSSNDTIEHAADITDGNNTELTKTTVNISAVDNTTEQSNSRKRTRSEAEQIDTSKNLENMSIQDTSTVAKNVSFVLPDEKSDAMSIDEEDKDSESFSEVC
Regarding B2, in experiment [3], the binding entry is “binds”.
